Assay results as given in PMC5966444.
Results are given in words; binding and its absence hold for the method and conditions named. In cells and extracts the contact can be indirect. A result given as binding can be weak or reduced; the word gives no strength. Tags and fused reporters may be left off the sequences shown.

Sequences of proteins named here, by UniProt entry; tags and fusion partners are left off. A change or cut given only in a name is not applied to a line headed by its entry.
UniProt P46867: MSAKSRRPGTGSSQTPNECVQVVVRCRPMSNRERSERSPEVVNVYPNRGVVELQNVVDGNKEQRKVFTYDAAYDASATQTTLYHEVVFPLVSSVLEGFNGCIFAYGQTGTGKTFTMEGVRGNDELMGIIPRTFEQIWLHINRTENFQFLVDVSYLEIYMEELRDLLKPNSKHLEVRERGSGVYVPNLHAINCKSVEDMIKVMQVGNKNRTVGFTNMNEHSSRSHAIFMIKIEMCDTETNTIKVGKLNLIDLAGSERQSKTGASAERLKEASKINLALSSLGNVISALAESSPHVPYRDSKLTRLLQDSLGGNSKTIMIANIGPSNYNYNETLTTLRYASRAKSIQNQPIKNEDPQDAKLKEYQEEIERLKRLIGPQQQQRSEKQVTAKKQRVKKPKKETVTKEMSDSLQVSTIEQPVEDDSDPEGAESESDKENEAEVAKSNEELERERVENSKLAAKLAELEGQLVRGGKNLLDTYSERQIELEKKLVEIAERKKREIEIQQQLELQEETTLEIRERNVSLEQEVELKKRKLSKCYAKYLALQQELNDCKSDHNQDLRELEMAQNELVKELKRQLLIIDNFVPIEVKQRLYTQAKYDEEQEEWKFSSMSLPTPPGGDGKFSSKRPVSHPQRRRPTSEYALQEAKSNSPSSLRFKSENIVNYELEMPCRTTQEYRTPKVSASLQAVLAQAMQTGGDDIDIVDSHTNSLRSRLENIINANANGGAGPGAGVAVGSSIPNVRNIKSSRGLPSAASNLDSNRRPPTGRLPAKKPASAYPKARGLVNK

Target: KLP68D-YFP, Kinesin-2 motor subunit KLP68D (2β) tagged with YFP (Drosophila) (UniProt P46867)
Test: FRET or BRET; sensitized FRET (sFRET) in the proximal axon segment of lch5 neurons of dissected third instar Drosophila larvae, 76–79 h AEL; donor TQ (405 nm excitation, 480–495 nm), FRET channel 535–565 nm; ratio of FRET channel to TQ channel; also time-lapse at 5 Hz for up to 40 s

B1: recombinant ChAT (Choline Acetyltransferase) tagged with the mTurquoise fluorescent protein (enzyme, UniProt P07668 1-721)
chain: MASNEASTSAAGSGPESAALFSKLRSFSIGSGPNSPQRVVSNLRGFLTHRLSNITPSDTGWKDSILSIPKKWLSTAESVDEFGFPDTLPKVPVPALDETMADYIRALEPITTPAQLERTKELIRQFSAPQGIGARLHQYLLDKREAEDNWAYYYWLNEMYMDIRIPLPINSNPGMVFPPRRFKTVHDVAHFAARLLDGILSHREMLDSGELPLERAASREKNQPLCMAQYYRLLGSCRRPGVKQDSQFLPSRERLNDEDRHVVVICRNQMYCVVLQASDRGKLSESEIASQILYVLSDAPCLPAKPVPVGLLTAEPRSTWARDREMLQEDERNQRNLELIETAQVVLCLDEPLAGNFNARGFTGATPTVHRAGDRDETNMAHEMIHGGGSEYNSGNRWFDKTMQLIICTDGTWGLCYEHSCSEGIAVVQLLEKIYKKIEEHPDEDNGLPQHHLPPPERLEWHVGPQLQLRFAQASKSVDKCIDDLDFYVYRYQSYGKTFIKSCQVSPDVYIQLALQLAHYKLYGRLVATYESASTRRFLHGRVDCIRAASTEALEWAKAMCQGEGANVPLESDREDEEESRKVKFSIYSKDHLRELFRCAVARQTEVMVKNILGNGIDIPLLGLREASIEVTGEMHELFKDESYIISQCFLLSTSQVACSTDSFMGYGPVTPRGYGCSYNPHPEQIVFCVSAFYSCEDTSASRYAKSLQDSLDIMRDLLQN
  binding: binds
